Test results as given in PubChem BioAssay AID1347426 (Functional Genomics Laboratory (NCATS/FGL), 2020).
Among all 31,000 sequences or so, about 1,400 (4.5%) were called active.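 How the source made its calls: active means median seed-adjusted z-score above 1 or below -1; inactive means the rest.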 This is one part of the list.

Assay: Novel Modifiers of Survival Motor Neuron (SMN) Protein: Gene Identification via Genome-wide siRNA Screen;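 further: luminescence tracks full-length SMN protein made from the SMN2 reporter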
Settings: HEK293T SMN2-luciferase reporter, siRNA knockdown, 72 h; actives lie on both sides
How it was run: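 siRNA screen, 10418 genes ×3 siRNAs; 1 pmol/well, lipid reverse transfection into HEK293T SMN2-luc reporter line. 72 h, 37 °C, 5% CO2; ONE-Glo readout. Data: neg-ctrl normalized, log10, MAD; hit = MAD >1.0 or < -1.0.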

Sequence	median seed-adjusted z-score
GGUUAUCUGUGAAGAGACUTT against ZNF784	inactive: 0.291
CAGAAUAAAUCACACCCUATT against INSL3	inactive: -0.037
CAGUCGACAUACUCGGAUATT against AKAP8L	inactive: -0.334
GAGCUGAAGUCCUUAGAUATT against EIF2B3	inactive: -0.271
GCUACAAGGUUAUCGGUAUTT against GOT2	inactive: 0.205
CUCUGGAACGUGACUUUUATT against PAFAH2	inactive: 0.0216
GACCAAAAUUUGGAUACAATT against CTSL2	active: -1.04
GAUGUUGUCUUGCAACGAATT against MAGI3	inactive: 0.202
GCAAGAUUUUUACCGCAGATT against HSPA13	inactive: 0
GGAUCUUUGUGAGUCUGAATT against ANKZF1	inactive: 0.176
GAGUGGAAGUUAUCUGUCATT against WBSCR22	inactive: -0.21
GUGGUAAGGUGUUCACUGATT against PATZ1	inactive: -0.57
CGACAACUGCAACUACGAUTT against PCSK7	inactive: 0
GAUACGCUAUGAACUCUCATT against RCE1	active: -1.19
CGAUCAGUGCUGCACUUAATT against APOF	inactive: 0.0982
CCCUGAUCAUAUUUGGGAATT against NPSR1	inactive: -0.314
UGUCAGAGACUGGACCUUATT against ZNF238	inactive: -0.491
GGAGCUCACAUUUAUGGAATT against EXOSC5	inactive: 0.109
GGAGAUUAAUGGGCACAAUTT against MYO18A	inactive: 0.174
GCCUUACUCAAGAUUGACATT against PCDH21	inactive: -0.528
GAGAAGUUUUUGAUACCUATT against GNPAT	inactive: 0.111
GCAGUGUAUAGAACGAGAATT against RNGTT	active: -1.55

Sequence	median seed-adjusted z-score
GGAAAUUGUCCAUAAACUUTT against SMYD5	inactive: -0.217
GAGUUGCUGUGGUUUAUCATT against TYMS	inactive: -0.6
GGAUGAGAUGAUCUCAGUATT against ZNF662	inactive: 0.352
GAGCAGAUUCAAUACCGAATT against CAPN13	inactive: 0.208
GAAUCAUCGUGGGACUUUUTT against GABBR1	inactive: -0.0526
CCGAUGGAUUUGCACUGUATT against PDE10A	inactive: -0.382
GUAUUCGCUUUGCAUCUUUTT against SUV39H2	inactive: -0.279
GGUCUUCGGUGUCCACUUUTT against CCR7	inactive: 0.244
GUAUUAAUGUUUUUGCAUATT against MARCKS	inactive: 0.379
UGCUCACGGUUGACCGCUATT against GPR142	inactive: -0.0636
CAAAGAGAGUUAUGACUAUTT against VPS29	inactive: -0.408
GACUGGAAAUGAUUCGAGATT against RTCD1	inactive: 0.0794
GUGCAAGCGAGACAACAAATT against PCDH19	inactive: 0
CAGACACUGUCGCUACGUATT against PCYT1B	inactive: 0.177
GCAUCCACACAAGGGCAAATT against DUX1	inactive: -0.62
GCCUUACCAAGGUUACAGATT against C10orf2	inactive: 0.31
GCCGGAAGAUGCAUAUGAATT against DYNC1LI2	inactive: -0.491
CAAUCAAGUUCACCGAAAATT against 2-Sep	inactive: 0.0349
CCAUCCAGUUGGUACCCAATT against ELN	inactive: -0.149
GGAACAUAGUCUUCAGGUATT against KIF20A	inactive: 0.906
GAGCAACUUUGAUCAACGATT against PDGFRB	inactive: -0.709
GCUUUGAAGAUGUAGGACATT against CYB5B	inactive: 0

Sequence	median seed-adjusted z-score
GAAGAUAUGCAACAGCCUATT against UNC5B	inactive: -0.0207
GCGACACAGGGACUAUUUUTT against HES3	inactive: 0.284
GGUGCUCUCGGUUGCACAATT against U2AF1	active: 2.08
GGAAGUGGUUAAAGCCUGATT against ALDH16A1	inactive: 0.42
CUUCUUCAACGGGACAGAATT against GGT5	inactive: 0.307
CGGAAGAGCUGUACAAAGATT against KLC3	inactive: -0.156
CAGAAGAUAUCAUCAAGUUTT against ABLIM1	inactive: 0.115
UGAGAGCUCUAGAUAUGAATT against ZNF768	inactive: 0.169
GUACUUGAAGGAAAUCGAATT against MCM6	inactive: 0.266
GCUCAGUUCUCGUCAAGGATT against ARIH2	inactive: 0.0449
GGAGGAGACCGCAAGUUGATT against BCL2L12	inactive: -0.77
AGAUUAGAGUGAUUUGUGATT against LRRC55	inactive: 0.314
GGGAAGCCGCCUAUACCAATT against TK1	inactive: -0.0562
GAGUGAAAGAUAUACUUCATT against CARD16	inactive: 0.57
GCAUGUCAACAUAUCUCAATT against ZNF143	inactive: -0.357
AGACAAAUACCGAUACUUUTT against NDUFB9	inactive: -0.982
CAGCUGGUCCUGGACCUAATT against GRIN3B	inactive: 0.39
GCUCAUCUGGUUACAGUAATT against SFRS2B	inactive: -0.272
GACCCACUUCCGAUCCAAATT against ZNF593	inactive: 0.215
GCAGAUAAGUGCGAGGAAATT against TP53BP2	inactive: 0.157
UCUCCUGUCUGGUCCGAGATT against HSPBP1	inactive: 0.368
GAGCAGUUAUUCAAGCGGATT against KPNA1	inactive: -0.0231

Sequence	median seed-adjusted z-score
GUACUUUUGACAACAUUUATT against NAT13	inactive: 0
GGUCACAGUUGGAAAGACATT against SIRPG	inactive: -0.109
GGAAGAAGGUCAUCCGAAUTT against PKD1L3	inactive: -0.658
GACUGAAGGUGGAUUGUCATT against EYA1	inactive: 0.0838
GGAGUGAUCCUUCUGGUAATT against MEX3C	inactive: 0.0977
CAACGAGGAUGACAACCAATT against ZDHHC15	inactive: 0.548
GGAUUGCUUCUGACUCCGATT against ELK3	inactive: -0.16
CAACUUCCAGAUACACCUATT against ISL1	inactive: 0.138
CAAGAUCAAGAGUUCCUGATT against CYP2B6	inactive: 0.454
GCAUACCAGGAAUUCCUCATT against APBA1	inactive: 0.305
CUAAACCACCUGUUCGAAATT against DYNC1LI1	inactive: -0.683
GGCUUGUAAUUUCAUGCAATT against SYNPO2	inactive: 0
ACAGAUACCAGGUCAAUAATT against ITGAX	inactive: -0.0677
CCAUCUUCCUGAUCGACGATT against CDH22	inactive: -0.57
GCUUUAUGAAUCUAGCAAATT against ZNF416	inactive: 0.668
GGAAGAUCCUCUACCAGAATT against LATS2	inactive: -0.245
GGUUUAUAAUUGGGAUGUATT against VBP1	inactive: 0.317
GGAAAAGAAGUGUAGCUAUTT against APOH	inactive: 0.0283
CAACCGUCUUACUCUCUUUTT against LRRC15	inactive: -0.723
CAUGGGUGCUUAUAAGUCATT against IL1A	active: 1.12
CAGGAACACUAUAAUUAUATT against S1PR2	inactive: -0.964
CAGACAGACUGGUCGUUUATT against KIF9	inactive: 0

Sequence	median seed-adjusted z-score
GAGAAGACCUUUAUACGAATT against XPOT	inactive: 0.366
GCACCUUUCUGCUACGGUATT against ZNF526	inactive: 0.0265
GGGUUUCACGGAUGUCACUTT against SMOX	inactive: -0.148
CAUUGACUACAUUCAGUUUTT against MLX	inactive: 0.126
GGUCAGAACAUUCACCGAATT against CFTR	active: -1.23
GGAUUAUCAAGCACAAGUATT against SLC35D2	inactive: -0.127
GCCGCAUGGUGGUUGUGAUTT against OPN1SW	inactive: 0.32
GCAGAGGACGAAAAUGAUUTT against SSX1	inactive: 0.0114
GCACAGAAUCUUCCCUGGATT against TEF	inactive: 0
ACAUGUACCCGGAAAAGCUTT against TFAP4	inactive: -0.0515
GUGUUAGUAUAAUCGGUUUTT against NDST4	inactive: 0.426
GAACAUUCUUAAAGCCCUATT against RNF150	inactive: 0.478
GCCUGGUGUUACCCAUAUATT against ACTR10	inactive: 0.362
AACUUUCAGUCCCAAGUUATT against NADK	inactive: -0.201
CGUGAACUGGAAAAGAUCATT against GABBR1	inactive: -0.0526
CGCUCAUCUAUUACCUGGATT against TACSTD2	inactive: -0.681
GCCUUAUUGGUAAGGUUGATT against F2RL1	inactive: 0.138
GCAAGUCCCUGUACUAUUATT against ANXA2	inactive: 0.499
UGAUCAACCUCAAGACGGATT against MED16	inactive: -0.6
GCCCUUACAGGGUAUCAAATT against DDX46	active: -1.24

A different layout for part of the listing above.

| Sequence | median seed-adjusted z-score |
| --- | --- |
| GGAUUGCUUCUGACUCCGATT against ELK3 | inactive: -0.16 |
| CAACUUCCAGAUACACCUATT against ISL1 | inactive: 0.138 |
| CAAGAUCAAGAGUUCCUGATT against CYP2B6 | inactive: 0.454 |
| GCAUACCAGGAAUUCCUCATT against APBA1 | inactive: 0.305 |
| GGCUUGUAAUUUCAUGCAATT against SYNPO2 | inactive: 0 |
| ACAGAUACCAGGUCAAUAATT against ITGAX | inactive: -0.0677 |
| CCAUCUUCCUGAUCGACGATT against CDH22 | inactive: -0.57 |
| GCUUUAUGAAUCUAGCAAATT against ZNF416 | inactive: 0.668 |
| GGAAGAUCCUCUACCAGAATT against LATS2 | inactive: -0.245 |
| GGUUUAUAAUUGGGAUGUATT against VBP1 | inactive: 0.317 |
| GGAAAAGAAGUGUAGCUAUTT against APOH | inactive: 0.0283 |
| CAACCGUCUUACUCUCUUUTT against LRRC15 | inactive: -0.723 |
| CAUGGGUGCUUAUAAGUCATT against IL1A | active: 1.12 |
| CAGGAACACUAUAAUUAUATT against S1PR2 | inactive: -0.964 |
| CAGACAGACUGGUCGUUUATT against KIF9 | inactive: 0 |
| GAGAAGACCUUUAUACGAATT against XPOT | inactive: 0.366 |
| GCACCUUUCUGCUACGGUATT against ZNF526 | inactive: 0.0265 |
| GGGUUUCACGGAUGUCACUTT against SMOX | inactive: -0.148 |
| CAUUGACUACAUUCAGUUUTT against MLX | inactive: 0.126 |
| GGUCAGAACAUUCACCGAATT against CFTR | active: -1.23 |
| GGAUUAUCAAGCACAAGUATT against SLC35D2 | inactive: -0.127 |
| GCCGCAUGGUGGUUGUGAUTT against OPN1SW | inactive: 0.32 |
| GCAGAGGACGAAAAUGAUUTT against SSX1 | inactive: 0.0114 |
| GCACAGAAUCUUCCCUGGATT against TEF | inactive: 0 |
| GUGUUAGUAUAAUCGGUUUTT against NDST4 | inactive: 0.426 |
| GAACAUUCUUAAAGCCCUATT against RNF150 | inactive: 0.478 |
| AACUUUCAGUCCCAAGUUATT against NADK | inactive: -0.201 |
| CGUGAACUGGAAAAGAUCATT against GABBR1 | inactive: -0.0526 |
| CGCUCAUCUAUUACCUGGATT against TACSTD2 | inactive: -0.681 |
| GCCUUAUUGGUAAGGUUGATT against F2RL1 | inactive: 0.138 |
| GCAAGUCCCUGUACUAUUATT against ANXA2 | inactive: 0.499 |
| UGAUCAACCUCAAGACGGATT against MED16 | inactive: -0.6 |
| GCCCUUACAGGGUAUCAAATT against DDX46 | active: -1.24 |
